{
  "source": "patent US9404916B2",
  "about": "“Use of a protein kinase inhibitor to detect immune cells, such as T cells” (University College Cardiff Consultants Limited, priority 2008, dated 2016)",
  "system": "ILA1 TCR",
  "conditions": "simultaneous non-linear least-squares fit",
  "data": [
    {"smiles": "Cc1nc(Nc2ncc(C(=O)Nc3c(C)cccc3Cl)s2)cc(N2CCN(CCO)CC2)n1", "note": "[dasatinib, N-(2-chloro-6-methyl-phenyl)-2-(6-(4-(2-hydroxyethyl)-piperazin-1-yl)-2-methylpyrimidin-4-ylamino)thiazole-5-carboxamide]", "values": [
      {"measurement": "duplet recruitment enhancement factor δD", "result": "6.53±2.93"},
      {"measurement": "triplet recruitment enhancement factor δT", "result": "13.7±7.38"}
    ]}
  ]
}
